# Experimental data reported in the supplement of paper PMC12067093, “Discovery and optimisation of a covalent ligand for TRIM25 and its application to targeted protein ubiquitination” (Chemical Science, 2025).
# Protein sequences, listed by entry. Tags and fused reporters are not part of them. Lines headed by an entry give the natural chain unless they say otherwise; changes in a name come on top.
# UniProt Q9BSF4: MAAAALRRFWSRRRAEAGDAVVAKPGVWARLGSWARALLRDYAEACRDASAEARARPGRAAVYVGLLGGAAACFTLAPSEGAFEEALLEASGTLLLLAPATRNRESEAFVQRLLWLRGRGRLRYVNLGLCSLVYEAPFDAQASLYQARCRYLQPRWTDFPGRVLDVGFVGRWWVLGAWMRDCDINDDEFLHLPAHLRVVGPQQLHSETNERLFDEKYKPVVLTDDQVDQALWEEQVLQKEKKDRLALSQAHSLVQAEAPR
# UniProt Q8NHU6: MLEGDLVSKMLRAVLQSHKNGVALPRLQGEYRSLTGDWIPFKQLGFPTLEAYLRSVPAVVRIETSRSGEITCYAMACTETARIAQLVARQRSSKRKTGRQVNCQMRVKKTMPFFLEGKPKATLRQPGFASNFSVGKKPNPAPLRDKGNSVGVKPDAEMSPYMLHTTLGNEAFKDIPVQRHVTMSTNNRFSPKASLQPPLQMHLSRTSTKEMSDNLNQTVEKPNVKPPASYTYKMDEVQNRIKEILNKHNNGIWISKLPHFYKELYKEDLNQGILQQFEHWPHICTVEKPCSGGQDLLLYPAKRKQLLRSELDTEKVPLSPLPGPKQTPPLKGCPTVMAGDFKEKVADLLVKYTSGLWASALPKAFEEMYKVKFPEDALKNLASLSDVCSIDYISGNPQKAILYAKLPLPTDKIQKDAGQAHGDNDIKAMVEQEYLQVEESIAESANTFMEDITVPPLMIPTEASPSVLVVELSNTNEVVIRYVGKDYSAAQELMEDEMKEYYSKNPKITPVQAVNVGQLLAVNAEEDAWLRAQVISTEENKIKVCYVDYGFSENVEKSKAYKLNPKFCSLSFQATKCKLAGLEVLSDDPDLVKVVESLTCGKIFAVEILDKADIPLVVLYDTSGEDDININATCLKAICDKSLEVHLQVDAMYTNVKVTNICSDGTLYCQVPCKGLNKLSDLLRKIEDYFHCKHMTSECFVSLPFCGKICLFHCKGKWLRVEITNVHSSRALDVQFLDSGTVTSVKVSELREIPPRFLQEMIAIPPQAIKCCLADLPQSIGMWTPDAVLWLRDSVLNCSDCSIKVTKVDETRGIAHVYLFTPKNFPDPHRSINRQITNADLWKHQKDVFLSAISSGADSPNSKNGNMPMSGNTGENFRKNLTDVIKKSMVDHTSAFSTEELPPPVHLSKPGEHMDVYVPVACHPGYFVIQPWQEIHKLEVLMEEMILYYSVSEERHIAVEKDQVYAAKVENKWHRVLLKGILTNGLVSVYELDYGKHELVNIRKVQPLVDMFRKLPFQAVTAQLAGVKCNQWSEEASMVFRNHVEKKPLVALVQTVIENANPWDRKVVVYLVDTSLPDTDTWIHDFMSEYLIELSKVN
# UniProt P52888, whole entry, looked up: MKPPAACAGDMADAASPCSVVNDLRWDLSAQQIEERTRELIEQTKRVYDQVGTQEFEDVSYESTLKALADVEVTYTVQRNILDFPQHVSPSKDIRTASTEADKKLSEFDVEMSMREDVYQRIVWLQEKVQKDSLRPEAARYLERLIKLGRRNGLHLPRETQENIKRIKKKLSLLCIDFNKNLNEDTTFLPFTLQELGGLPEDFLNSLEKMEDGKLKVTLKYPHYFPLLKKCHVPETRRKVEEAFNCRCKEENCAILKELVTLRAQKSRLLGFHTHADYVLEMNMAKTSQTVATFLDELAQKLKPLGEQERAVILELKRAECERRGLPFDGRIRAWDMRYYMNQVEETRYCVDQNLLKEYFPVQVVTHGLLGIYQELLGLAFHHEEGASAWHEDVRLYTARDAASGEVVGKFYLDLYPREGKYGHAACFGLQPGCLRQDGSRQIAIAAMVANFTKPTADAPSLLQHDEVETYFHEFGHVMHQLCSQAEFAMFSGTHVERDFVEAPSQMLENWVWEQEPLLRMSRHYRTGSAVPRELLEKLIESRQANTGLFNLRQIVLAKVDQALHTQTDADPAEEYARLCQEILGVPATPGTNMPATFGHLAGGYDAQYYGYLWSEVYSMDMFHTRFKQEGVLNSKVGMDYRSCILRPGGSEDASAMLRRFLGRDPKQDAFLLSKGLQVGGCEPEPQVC
# UniProt Q96N21: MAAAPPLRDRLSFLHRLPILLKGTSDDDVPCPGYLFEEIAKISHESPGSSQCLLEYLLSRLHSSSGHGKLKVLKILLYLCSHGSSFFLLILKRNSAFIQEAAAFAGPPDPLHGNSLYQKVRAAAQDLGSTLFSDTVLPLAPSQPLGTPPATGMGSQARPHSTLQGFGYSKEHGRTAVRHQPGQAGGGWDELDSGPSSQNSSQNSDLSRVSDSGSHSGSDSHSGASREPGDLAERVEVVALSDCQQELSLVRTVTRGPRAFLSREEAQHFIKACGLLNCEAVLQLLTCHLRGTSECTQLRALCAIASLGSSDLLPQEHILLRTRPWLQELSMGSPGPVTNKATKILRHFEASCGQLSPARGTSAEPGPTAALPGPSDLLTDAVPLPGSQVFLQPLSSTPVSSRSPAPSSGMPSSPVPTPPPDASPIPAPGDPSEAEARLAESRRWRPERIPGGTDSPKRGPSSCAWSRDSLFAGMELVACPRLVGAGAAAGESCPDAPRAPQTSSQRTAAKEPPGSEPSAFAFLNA
# UniProt P04183: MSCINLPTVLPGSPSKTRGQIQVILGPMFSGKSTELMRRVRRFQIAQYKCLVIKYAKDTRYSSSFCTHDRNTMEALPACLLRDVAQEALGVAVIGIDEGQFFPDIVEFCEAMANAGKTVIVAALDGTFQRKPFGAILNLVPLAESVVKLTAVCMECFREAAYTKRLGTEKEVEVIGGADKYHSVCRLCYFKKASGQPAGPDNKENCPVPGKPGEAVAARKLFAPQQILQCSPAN
# UniProt Q9UGI8: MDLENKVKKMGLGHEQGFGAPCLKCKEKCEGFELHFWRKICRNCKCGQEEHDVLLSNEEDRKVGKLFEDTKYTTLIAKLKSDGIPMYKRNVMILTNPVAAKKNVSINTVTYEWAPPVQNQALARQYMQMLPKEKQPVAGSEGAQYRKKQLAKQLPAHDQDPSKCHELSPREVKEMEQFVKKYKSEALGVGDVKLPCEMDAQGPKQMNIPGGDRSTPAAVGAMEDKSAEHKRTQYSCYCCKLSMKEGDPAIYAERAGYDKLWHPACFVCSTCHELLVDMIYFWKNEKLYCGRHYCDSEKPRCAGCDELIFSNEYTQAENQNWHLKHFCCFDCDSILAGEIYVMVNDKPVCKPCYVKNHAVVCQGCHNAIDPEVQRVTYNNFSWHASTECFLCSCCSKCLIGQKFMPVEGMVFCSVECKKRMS
# UniProt Q9Y6I9: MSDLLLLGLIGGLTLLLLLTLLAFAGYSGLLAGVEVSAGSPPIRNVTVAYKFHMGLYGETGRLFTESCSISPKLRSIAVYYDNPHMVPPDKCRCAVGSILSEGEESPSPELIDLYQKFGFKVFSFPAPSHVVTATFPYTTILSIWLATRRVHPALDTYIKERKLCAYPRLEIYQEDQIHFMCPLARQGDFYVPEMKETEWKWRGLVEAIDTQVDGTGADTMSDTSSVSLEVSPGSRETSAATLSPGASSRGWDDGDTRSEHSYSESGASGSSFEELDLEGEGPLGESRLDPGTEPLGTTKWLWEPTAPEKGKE
# UniProt Q13488, whole entry, looked up: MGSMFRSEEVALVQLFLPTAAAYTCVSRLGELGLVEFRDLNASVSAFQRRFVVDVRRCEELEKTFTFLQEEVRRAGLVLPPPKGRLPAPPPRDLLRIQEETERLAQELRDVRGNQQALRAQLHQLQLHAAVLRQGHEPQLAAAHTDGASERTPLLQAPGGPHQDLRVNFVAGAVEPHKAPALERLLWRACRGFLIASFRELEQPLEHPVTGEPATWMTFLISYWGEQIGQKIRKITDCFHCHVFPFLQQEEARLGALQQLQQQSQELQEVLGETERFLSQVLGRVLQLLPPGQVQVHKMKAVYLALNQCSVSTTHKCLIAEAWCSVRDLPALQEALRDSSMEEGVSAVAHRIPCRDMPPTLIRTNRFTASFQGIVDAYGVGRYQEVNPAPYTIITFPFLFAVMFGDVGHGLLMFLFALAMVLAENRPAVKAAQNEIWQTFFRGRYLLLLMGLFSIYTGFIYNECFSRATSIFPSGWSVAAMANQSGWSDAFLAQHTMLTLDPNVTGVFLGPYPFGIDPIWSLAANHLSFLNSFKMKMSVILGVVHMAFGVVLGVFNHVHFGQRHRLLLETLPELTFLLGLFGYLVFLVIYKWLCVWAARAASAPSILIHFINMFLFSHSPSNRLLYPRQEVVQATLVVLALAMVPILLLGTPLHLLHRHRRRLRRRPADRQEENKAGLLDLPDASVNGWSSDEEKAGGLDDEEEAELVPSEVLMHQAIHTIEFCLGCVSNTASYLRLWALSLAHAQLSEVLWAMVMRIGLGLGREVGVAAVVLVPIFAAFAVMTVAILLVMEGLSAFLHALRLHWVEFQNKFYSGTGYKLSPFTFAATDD
# UniProt P31483: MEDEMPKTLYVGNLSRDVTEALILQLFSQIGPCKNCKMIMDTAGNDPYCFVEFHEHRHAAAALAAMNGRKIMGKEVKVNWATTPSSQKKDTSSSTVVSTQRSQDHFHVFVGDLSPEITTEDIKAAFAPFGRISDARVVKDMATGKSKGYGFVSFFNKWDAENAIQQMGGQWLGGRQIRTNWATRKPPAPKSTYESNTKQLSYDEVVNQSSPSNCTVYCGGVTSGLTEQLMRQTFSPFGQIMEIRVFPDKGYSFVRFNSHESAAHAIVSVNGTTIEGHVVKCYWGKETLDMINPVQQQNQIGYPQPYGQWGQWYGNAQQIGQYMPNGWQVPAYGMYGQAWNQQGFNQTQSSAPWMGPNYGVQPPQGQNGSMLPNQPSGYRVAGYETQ
# UniProt Q86W42: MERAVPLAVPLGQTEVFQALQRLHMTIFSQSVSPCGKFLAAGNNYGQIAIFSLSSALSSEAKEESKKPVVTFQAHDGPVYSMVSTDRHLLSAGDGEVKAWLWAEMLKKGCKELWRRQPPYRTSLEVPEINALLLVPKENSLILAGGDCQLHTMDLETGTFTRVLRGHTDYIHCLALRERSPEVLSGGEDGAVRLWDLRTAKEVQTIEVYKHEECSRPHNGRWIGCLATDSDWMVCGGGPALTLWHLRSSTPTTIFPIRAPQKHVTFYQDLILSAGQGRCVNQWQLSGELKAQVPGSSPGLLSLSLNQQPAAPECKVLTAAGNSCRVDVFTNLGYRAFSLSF
# UniProt Q96FV9: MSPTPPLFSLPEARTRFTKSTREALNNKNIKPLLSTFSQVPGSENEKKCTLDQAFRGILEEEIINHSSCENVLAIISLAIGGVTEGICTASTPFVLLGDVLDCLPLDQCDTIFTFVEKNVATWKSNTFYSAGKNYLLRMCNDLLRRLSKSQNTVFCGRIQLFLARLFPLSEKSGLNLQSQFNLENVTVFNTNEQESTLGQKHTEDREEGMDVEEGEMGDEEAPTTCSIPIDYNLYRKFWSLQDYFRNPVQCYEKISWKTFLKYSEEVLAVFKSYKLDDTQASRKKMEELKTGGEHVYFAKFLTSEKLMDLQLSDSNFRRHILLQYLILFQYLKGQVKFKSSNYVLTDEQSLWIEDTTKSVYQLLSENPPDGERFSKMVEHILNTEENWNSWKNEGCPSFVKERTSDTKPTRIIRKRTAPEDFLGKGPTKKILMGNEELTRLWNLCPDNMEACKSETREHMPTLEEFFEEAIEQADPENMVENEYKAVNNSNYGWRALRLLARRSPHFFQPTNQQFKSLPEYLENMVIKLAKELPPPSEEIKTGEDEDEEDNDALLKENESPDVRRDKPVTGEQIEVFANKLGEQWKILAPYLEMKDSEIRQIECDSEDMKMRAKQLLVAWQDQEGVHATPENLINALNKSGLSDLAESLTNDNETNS
# UniProt Q9P016: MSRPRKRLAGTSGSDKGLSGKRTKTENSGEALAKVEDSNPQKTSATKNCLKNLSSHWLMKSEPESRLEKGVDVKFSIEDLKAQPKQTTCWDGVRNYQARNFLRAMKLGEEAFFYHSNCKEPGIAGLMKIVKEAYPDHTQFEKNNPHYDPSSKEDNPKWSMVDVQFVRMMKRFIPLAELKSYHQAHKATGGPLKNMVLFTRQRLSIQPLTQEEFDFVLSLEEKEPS
# UniProt Q9H5Q4: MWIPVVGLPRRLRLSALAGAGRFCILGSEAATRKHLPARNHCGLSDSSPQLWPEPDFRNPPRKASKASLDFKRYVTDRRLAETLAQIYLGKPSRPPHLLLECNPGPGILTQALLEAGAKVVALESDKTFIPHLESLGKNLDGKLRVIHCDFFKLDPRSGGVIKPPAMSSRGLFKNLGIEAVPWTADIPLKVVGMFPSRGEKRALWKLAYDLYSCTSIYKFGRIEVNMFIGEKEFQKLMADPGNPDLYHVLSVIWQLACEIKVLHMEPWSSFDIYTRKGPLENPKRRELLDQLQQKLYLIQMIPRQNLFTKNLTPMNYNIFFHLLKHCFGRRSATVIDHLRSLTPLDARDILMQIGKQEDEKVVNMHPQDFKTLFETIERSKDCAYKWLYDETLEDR
# UniProt Q99595: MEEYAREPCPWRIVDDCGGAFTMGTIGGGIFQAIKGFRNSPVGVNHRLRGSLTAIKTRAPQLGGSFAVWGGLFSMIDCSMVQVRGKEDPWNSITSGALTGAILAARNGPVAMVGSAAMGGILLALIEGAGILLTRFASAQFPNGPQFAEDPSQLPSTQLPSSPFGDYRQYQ
# The list shows a part of the results.
# Compound: CC1Cc2ccccc2N1C(=O)C1CCCN(C1)C(=O)CCl (mixture of isomers) [TRIM25 ligand 11 (diastereomer mixture)]
# Assay: probe-labelled cysteine peptide fold change vs DMSO (competition) (log2 fold change); higher = less target engagement (more negative = stronger competition)
# Conditions: THP-1, incubation time: 4 h
# 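Note: competitive chemoproteomic profiling in live THP-1 cells with an iodoacetamide desthiobiotin (IA-DTB) probe, comparing probe-labelled peptide intensities in compound-treated cells against DMSO-treated controls.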
target,measurement,setting,value
TIMM10_P62072_29_MTSACHR (UniProt P62072),probe-labelled cysteine peptide fold change,10 µM,-0.161
same,probe-labelled cysteine peptide fold change,50 µM,0.224
TIMM29_Q9BSF4_46_DYAEACR (UniProt Q9BSF4),probe-labelled cysteine peptide fold change,10 µM,-0.14
same,probe-labelled cysteine peptide fold change,50 µM,0.0204
TDRD7_Q8NHU6_284_ELYKEDLNQGILQQFEHWPHICTVEK (UniProt Q8NHU6),probe-labelled cysteine peptide fold change,10 µM,-0.365
same,probe-labelled cysteine peptide fold change,50 µM,-0.43
TKFC_Q3LXA3_13+24_KLVNSVAGCADDALAGLVACNPNLQLLQGHR (UniProt Q3LXA3),probe-labelled cysteine peptide fold change,10 µM,-0.15
same,probe-labelled cysteine peptide fold change,50 µM,-0.227
TEX30_Q5JUR7_129_GLICISYPLHHPK (UniProt Q5JUR7),probe-labelled cysteine peptide fold change,10 µM,-0.0992
same,probe-labelled cysteine peptide fold change,50 µM,-0.0859
THOP1_P52888_231_CHVPETR (UniProt P52888),probe-labelled cysteine peptide fold change,10 µM,0.0498
same,probe-labelled cysteine peptide fold change,50 µM,-0.0166
TIMELESS_Q9UNS1_1126_VPGEQGSDEEHCK (UniProt Q9UNS1),probe-labelled cysteine peptide fold change,10 µM,-0.18
same,probe-labelled cysteine peptide fold change,50 µM,-0.398
TIMM29_Q9BSF4_130_YVNLGLCSLVYEAPFDAQASLYQAR (UniProt Q9BSF4),probe-labelled cysteine peptide fold change,10 µM,-0.179
same,probe-labelled cysteine peptide fold change,50 µM,0.148
TEPSIN_Q96N21_302_ALCAIASLGSSDLLPQEHILLR (UniProt Q96N21),probe-labelled cysteine peptide fold change,10 µM,-0.000361
same,probe-labelled cysteine peptide fold change,50 µM,-0.113
TEPSIN_Q96N21_463_RGPSSCAWSR (UniProt Q96N21),probe-labelled cysteine peptide fold change,10 µM,-0.0656
same,probe-labelled cysteine peptide fold change,50 µM,-0.113
THBS4_P35443_925_LGVFCFSQENIIWSNLK (UniProt P35443),probe-labelled cysteine peptide fold change,10 µM,0.547
same,probe-labelled cysteine peptide fold change,50 µM,0.212
THUMPD1_Q9NXG2_31_RCDAGGPR (UniProt Q9NXG2),probe-labelled cysteine peptide fold change,10 µM,-0.5
same,probe-labelled cysteine peptide fold change,50 µM,0.0804
TKT_P29401_386_TVPFCSTFAAFFTR (UniProt P29401),probe-labelled cysteine peptide fold change,10 µM,0.00648
same,probe-labelled cysteine peptide fold change,50 µM,0.0101
TDRD7_Q8NHU6_699+706_HMTSECFVSLPFCGK (UniProt Q8NHU6),probe-labelled cysteine peptide fold change,10 µM,0.27
same,probe-labelled cysteine peptide fold change,50 µM,0.167
TEP1_Q99973_2105_TPVLIHSFPACHR (UniProt Q99973),probe-labelled cysteine peptide fold change,10 µM,-0.153
same,probe-labelled cysteine peptide fold change,50 µM,0.0331
TK1_P04183_153_LTAVCMECFR (UniProt P04183),probe-labelled cysteine peptide fold change,10 µM,0.0482
same,probe-labelled cysteine peptide fold change,50 µM,0.348
TES_Q9UGI8_412+416_FMPVEGMVFCSVECK (UniProt Q9UGI8),probe-labelled cysteine peptide fold change,10 µM,-0.138
same,probe-labelled cysteine peptide fold change,50 µM,-0.0421
TGFB1I1_O43294_231_GLCGSCNKPIAGQVVTALGR (UniProt O43294),probe-labelled cysteine peptide fold change,10 µM,0.0114
same,probe-labelled cysteine peptide fold change,50 µM,-0.0818
TENT2_Q6PIY7_431_YICVEEPFDGTNTAR (UniProt Q6PIY7),probe-labelled cysteine peptide fold change,10 µM,-0.0904
same,probe-labelled cysteine peptide fold change,50 µM,-0.0996
TEX264_Q9Y6I9_94_CAVGSILSEGEESPSPELIDLYQK (UniProt Q9Y6I9),probe-labelled cysteine peptide fold change,10 µM,0.115
same,probe-labelled cysteine peptide fold change,50 µM,0.126
TESC_Q96BS2_213_FLNMETMALCH (UniProt Q96BS2),probe-labelled cysteine peptide fold change,10 µM,0.107
same,probe-labelled cysteine peptide fold change,50 µM,0.0887
TCIRG1_Q13488_241_KITDCFHCHVFPFLQQEEAR (UniProt Q13488),probe-labelled cysteine peptide fold change,10 µM,0.0599
same,probe-labelled cysteine peptide fold change,50 µM,-0.000968
TGFBRAP1_Q8WUH2_700_ALHILVHELQDFAAAEDYCLWCSEGRDPPHR (UniProt Q8WUH2),probe-labelled cysteine peptide fold change,10 µM,0.0726
same,probe-labelled cysteine peptide fold change,50 µM,0.233
TIA1_P31483_49_MIMDTAGNDPYCFVEFHEHR (UniProt P31483),probe-labelled cysteine peptide fold change,10 µM,-0.0148
same,probe-labelled cysteine peptide fold change,50 µM,-0.032
THOC6_Q86W42_214_EVQTIEVYKHEECSRPHNGR (UniProt Q86W42),probe-labelled cysteine peptide fold change,10 µM,-0.167
same,probe-labelled cysteine peptide fold change,50 µM,-0.146
TKT_P29401_133_QAFTDVATGSLGQGLGAACGMAYTGK (UniProt P29401),probe-labelled cysteine peptide fold change,10 µM,0.00614
same,probe-labelled cysteine peptide fold change,50 µM,0.0307
TERF2_Q15554_207_EAAVIICIK (UniProt Q15554),probe-labelled cysteine peptide fold change,10 µM,-0.0851
same,probe-labelled cysteine peptide fold change,50 µM,-0.0844
THOC1_Q96FV9_604_QIECDSEDMK (UniProt Q96FV9),probe-labelled cysteine peptide fold change,10 µM,-0.0446
same,probe-labelled cysteine peptide fold change,50 µM,-0.0167
TEX264_Q9Y6I9_68_LFTESCSISPK (UniProt Q9Y6I9),probe-labelled cysteine peptide fold change,10 µM,-0.0195
same,probe-labelled cysteine peptide fold change,50 µM,0.0367
TES_Q9UGI8_29_CEGFELHFWR (UniProt Q9UGI8),probe-labelled cysteine peptide fold change,10 µM,0.0302
same,probe-labelled cysteine peptide fold change,50 µM,-0.00802
TEP1_Q99973_21_CLAMLPDLQPLEK (UniProt Q99973),probe-labelled cysteine peptide fold change,10 µM,0.0705
same,probe-labelled cysteine peptide fold change,50 µM,-0.354
TKT_P29401_417_MAAISESNINLCGSHCGVSIGEDGPSQMALEDLAMFR (UniProt P29401),probe-labelled cysteine peptide fold change,10 µM,0.00553
same,probe-labelled cysteine peptide fold change,50 µM,-0.379
THYN1_Q9P016_89_QTTCWDGVR (UniProt Q9P016),probe-labelled cysteine peptide fold change,10 µM,-0.0572
same,probe-labelled cysteine peptide fold change,50 µM,-0.0718
TCIRG1_Q13488_317_CLIAEAWCSVR (UniProt Q13488),probe-labelled cysteine peptide fold change,10 µM,0.0352
same,probe-labelled cysteine peptide fold change,50 µM,0.0368
TFB2M_Q9H5Q4_102_PSRPPHLLLECNPGPGILTQALLEAGAK (UniProt Q9H5Q4),probe-labelled cysteine peptide fold change,10 µM,-0.0999
same,probe-labelled cysteine peptide fold change,50 µM,0.0423
TDRD7_Q8NHU6_692_KIEDYFHCK (UniProt Q8NHU6),probe-labelled cysteine peptide fold change,10 µM,0.057
same,probe-labelled cysteine peptide fold change,50 µM,-0.0418
TGFBRAP1_Q8WUH2_33_VNIECVECCGR (UniProt Q8WUH2),probe-labelled cysteine peptide fold change,10 µM,0.119
same,probe-labelled cysteine peptide fold change,50 µM,0.199
THOC1_Q96FV9_251_NPVQCYEK (UniProt Q96FV9),probe-labelled cysteine peptide fold change,10 µM,0.154
same,probe-labelled cysteine peptide fold change,50 µM,0.121
TIMM17A_Q99595_17_IVDDCGGAFTMGTIGGGIFQAIK (UniProt Q99595),probe-labelled cysteine peptide fold change,10 µM,-0.05
same,probe-labelled cysteine peptide fold change,50 µM,-0.064
THADA_Q6YHU6_42_NLASLLLHCVQLTDGVSQIHYIK (UniProt Q6YHU6),probe-labelled cysteine peptide fold change,10 µM,-0.0178
same,probe-labelled cysteine peptide fold change,50 µM,0.0472
THOC5_Q13769_507_QFASLEHGIVPVTSDCQYLFPAK (UniProt Q13769),probe-labelled cysteine peptide fold change,10 µM,0.0632
same,probe-labelled cysteine peptide fold change,50 µM,-0.308

# Part of the list above in a different format.
target	measurement	setting	value
TEP1_Q99973_21_CLAMLPDLQPLEK (UniProt Q99973)	probe-labelled cysteine peptide fold change	10 µM	0.0705
same	probe-labelled cysteine peptide fold change	50 µM	-0.354
TKT_P29401_417_MAAISESNINLCGSHCGVSIGEDGPSQMALEDLAMFR (UniProt P29401)	probe-labelled cysteine peptide fold change	10 µM	0.00553
same	probe-labelled cysteine peptide fold change	50 µM	-0.379
THYN1_Q9P016_89_QTTCWDGVR (UniProt Q9P016)	probe-labelled cysteine peptide fold change	10 µM	-0.0572
same	probe-labelled cysteine peptide fold change	50 µM	-0.0718
TCIRG1_Q13488_317_CLIAEAWCSVR (UniProt Q13488)	probe-labelled cysteine peptide fold change	10 µM	0.0352
